# Measurements: PubChem BioAssay AID1347423 (Functional Genomics Laboratory (NCATS/FGL), 2020)
# Out of some 52,000 sequences screened, about 210 (0.4%) were called active.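 The calls were made as follows: active = gene whose silencing raises cell survival under the drug, median off-target-corrected z-score across its silencing RNAs 2 or more; inactive = the rest.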 Some of the results follow.
# Assay: Resistance to Poly (ADP-Ribose) Polymerase inhibitor: Gene Identification via Genome-wide siRNA Screen
# Details: mouse BRCA2 R2336H ES cells, olaparib, CellTiter-Glo viability; active compounds read high
# Method in brief: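 Mouse BRCA2 R2336H ES cells were reverse-transfected with siRNA (20 nM final), treated at 48 h with 500 nM olaparib, and read by CellTiter-Glo after 72 h. Scores: MAD-based z per siRNA, median per gene, seed off-target correction.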
row,Sequence,z-score
1,GGUGCAAAUGUUCUCAUCUTT against AI317395,inactive: 3.44
2,GUAUUGGAUACGAAGCAGATT against Defb2,inactive: -0.461
3,CGGAAAAUCCUGCCUCCCUTT against 4930429A08Rik,inactive: 0.212
4,CGCGGUGUUCGACAUCUUGTT against AI326906,inactive: 0.615
5,GGAACUUGAAAGAGAUUCUTT against Usp28,inactive: -0.198
6,GGACAGUGACCAAUUAUUUTT against Tacr1,inactive: -0.588
7,CCCAGCCGUAACUUAUGAGTT against Pga5,inactive: 0.133
8,GGUGCUUAGAGUCAAGAAUTT against 2600017H02Rik,inactive: 1.28
9,CGAUGGUGAUUAUCUAAAATT against Tm4sf4,inactive: -0.302
10,GGUUGUUCACUAGGUCACUTT against Creg2,inactive: 0.0477
11,GGACAAAGUCACAGAGUCCTT against Pres,inactive: -0.992
12,GGCUAUGGGAAUCAUGAAUTT against Hist2h2bb,inactive: 0.606
13,GCAGUAGCGACGAAGGAUGTT against 2310020H19Rik,inactive: -1.46
14,GCAUAACCAAGUGUGAUGCTT against Arpm2,inactive: 1.32
15,GGCCGUUUUUUGGCAUCGUTT against Acas2l,inactive: 1.36
16,CCAUGUGCGACCUGAUAAUTT against Cklfsf7,inactive: -0.677
17,CGGACAAAUUGGAUGGUUUTT against Nck1,inactive: -0.418
18,GCUUCUUCUGUGAACUUCCTT against Olfr854,inactive: 0.637
19,GACAAGUUCUCAAGUAUCCTT against 1110006O24Rik,inactive: 0.94
20,CUACCUGUUUCCUAGCUUGTT against Etohi2,inactive: -0.486
21,GGUUUUCACCAUAUGCAGCTT against Zfp353,inactive: -0.47
22,GCCUGAAGAGAGUCUUAUCTT against 4930539E08Rik,inactive: -1.39

# 4 records drawn at random from the list so far:
row,Sequence,z-score
22,GCCUGAAGAGAGUCUUAUCTT against 4930539E08Rik,inactive: -1.39
1,GGUGCAAAUGUUCUCAUCUTT against AI317395,inactive: 3.44
15,GGCCGUUUUUUGGCAUCGUTT against Acas2l,inactive: 1.36
17,CGGACAAAUUGGAUGGUUUTT against Nck1,inactive: -0.418

# Later entries

row,Sequence,z-score
1,GGUCAAACACAGUUCAAAGTT against 2010004J24Rik,inactive: 0.134
2,GCCACCUACUACGACAACATT against Hoxb3,inactive: 1.07
3,CGGCUUAGUGUAAUUUGCCTT against Diras2,inactive: -0.136
4,GGACCUCAAAGACAGAGAUTT against Armet,inactive: -1.61
5,GAAAUGCAAGACUCUGCACTT against 1700020L24Rik,inactive: -0.283
6,GGUUCUGUGAAUUCUUUAATT against U90926,inactive: 0.921
7,GCAGACAGCACUAUGUCUUTT against 6430401A05Rik,inactive: 0.467
8,GGUCAAUGUAGCUCCCAUGTT against D630048P19Rik,inactive: 0.446
9,GCGAAUUACUAUGUACCUATT against Sqrdl,inactive: -1.39
10,GGCUGGAAAAAAUUUUGUCTT against Sip1,inactive: 0.199
11,GGACAUUGCUUUUCACUAUTT against 4930447C04Rik,inactive: 0.797
12,GCAUGCUGAUGGACUGUAATT against 2610510H01Rik,inactive: -0.58
13,GCCCUGUACCUUUUAGCUUTT against Olfr704,inactive: -0.715
14,CCAGGAGUACAAACACUAUTT against AI586015,inactive: 0.284
15,GGAAAUACUGCUGACCAUUTT against 2410127L17Rik,inactive: 0.33
16,CCUUAAUGGUAAAUCCUCGTT against V1rh4,inactive: 0.549
17,AGUGAAACUAAACUGGAGUTT against 2610318N02Rik,inactive: -0.587
18,CCAGGAUCCUGUUUCUGACTT against AF067061,inactive: 0.782
19,GCCACUUUACCAAACGACATT against Pglyrp2,inactive: 0.264
20,GACGGUGGGACUCACUGUUTT against Ors6,inactive: -0.403
21,GGAUAUAAGGAAAACCAGATT against Rab2,inactive: -1.33
22,GGAGGAAGUGUUCUUUUCCTT against Psg17,inactive: -0.33

row,Sequence,z-score
1,GGAGAAACUGGCAGACCUUTT against 2900091E11Rik,inactive: -1.41
2,GGCCACUCAACUCUGUACUTT against Atxn7l1,inactive: 3.1
3,GGCAUAACCAAAAGAAAGUTT against 4933427E11Rik,inactive: -1.58
4,GGUUGUGUAUGUGGAAAGUTT against Ppp2cz,inactive: -0.618
5,GGUGGGAGUAGUGUUUGUGTT against Ly6f,inactive: -0.433
6,GGGACAAUACAUUGAUAGCTT against V1rh7,inactive: -0.359
7,GGAGGGAGACCUUAUCUUATT against Tjp3,inactive: 0.954
8,CGGCACUGACUUAUUGUUCTT against Olfr574,inactive: -0.0658
9,GGAGGACUAGGAGUGAUUGTT against 2310009E04Rik,inactive: -0.544
10,GGCUGAUGUUAACAUUGAATT against Cdkn2c,inactive: -1.29
11,CCACUCCAAGACCUACUCCTT against Large,inactive: 2.22
12,GCAGGACAACCAGCUGGUATT against 1110004B13Rik,inactive: 0.431
13,GGUAGUUCCUAAUAUUACCTT against Tlr4,inactive: 1.59
14,GCCAGGAUCCAUCAAUUCCTT against Olfr376,inactive: -0.918
15,GGGACAAAUUAACGACAUATT against Angptl3,inactive: 0.292
16,GGUAAAAAGGGUGUGUACUTT against Pdzk1,inactive: -1.68
17,GCCUUGAAGAGUCUCAUAUTT against Farp1,inactive: -0.245
18,GCAAUAUUUUCCCUAGAUCTT against V1rf1,inactive: 0.292
19,GCAUGGAGGACUUUGUCACTT against 1190002L16Rik,inactive: -2.08
20,CGACCAGAUGAACUGGUGUTT against 1500002O20Rik,inactive: 0.483
21,GGAAACUACUACAAUCAAGTT against Pigl,inactive: 0.246
